In paper PMC4669745:
No constants are given. Whether binding was seen depends on the method and setting. Binding seen in cells or lysates may run through a third protein. Some binding calls cover weakened binding; strength is not graded here.

By UniProt entry, the sequences of proteins in these tests, tags left out.
UniProt Q07812: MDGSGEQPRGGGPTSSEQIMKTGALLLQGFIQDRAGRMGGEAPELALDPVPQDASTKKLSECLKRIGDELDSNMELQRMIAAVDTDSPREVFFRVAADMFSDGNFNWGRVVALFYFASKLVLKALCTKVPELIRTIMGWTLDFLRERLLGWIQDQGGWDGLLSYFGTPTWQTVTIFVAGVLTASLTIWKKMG

Key:
[1] = biological target: T1, DRAM1 (DNA damage-regulated autophagy modulator 1) (human (endogenous in HeLa)) (UniProt Q8N682); assay: co-IP; HeLa cell lysates (untransfected or vector, or DRAM1-pcDNA4 for 48 h; also after serum-free medium for 4 h) incubated with 2 ug antibody (anti-BAX or anti-DRAM1) overnight at 4 °C, IgG/IgA beads, washed three times in 1x PBS pH 7.4, immunoblot
T1 sequence: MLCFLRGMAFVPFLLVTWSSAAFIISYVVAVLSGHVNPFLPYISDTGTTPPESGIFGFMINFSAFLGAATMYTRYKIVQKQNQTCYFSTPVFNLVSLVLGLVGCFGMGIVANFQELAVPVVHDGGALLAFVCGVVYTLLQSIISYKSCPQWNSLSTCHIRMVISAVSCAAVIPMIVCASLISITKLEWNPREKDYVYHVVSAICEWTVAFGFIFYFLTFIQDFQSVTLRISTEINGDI

[2] = biological target: T2, DRAM1 expressed from DRAM1-pcDNA4 (UniProt Q8N682); assay: as above
T2 sequence: T1 sequence

**Q.** How did the binding [1] turn out when BAX (from UniProt Q07812 1-192) was run?
**A.** binds

**Q.** And the binding [2]?
**A.** binds
